# From PubChem BioAssay AID445 (National Center for Advancing Translational Sciences (NCATS), 2006)
# Values joined by “and” are separate entries in the source; they are usually repeats but may differ in a detail not shown here. Equal values may be shown once. Some of the results follow. The main result of the screen is listed elsewhere. These columns were measured beside it and carry no call. Compounds called inactive in the main read-out are mostly missing here. Words in brackets tell the shape of the fitted curve; partial curves, single points and poor fits give uncertain potencies.
# Assay: IkB Signaling
# Conditions: ABC-DLBCL IkBa-CBG/CBR dual luciferase ratio (green luciferase fused to IkBa over red control in OCI-Ly3 lymphoma cells), 4 h
# Summary of the method: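 In this assay, an IκBα–CBG68 fusion accumulates when IKK-driven degradation is blocked; native CBR normalizes for cell number. OCI-Ly3 cells were treated 4 h with compound and doxycycline, then green and red light read after Chroma-Glo addition.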
# [1] = measured here: control luc red channel unless noted
# [2] = measured here: IkB-luc green channel
# [3] = measured here: control luc red channel
smiles,measurement,setting,value
CCc1ccc(CNC(=O)c2c(C)oc3ncnc(N4CCOCC4)c23)cc1,AC50,[1],"15.8 µM [falling, single point]"
COC(=O)c1cc(COc2ccc3oc(C)c(C(=O)OC)c3c2)c(C)o1,AC50,[1],"3.98 µM [falling, partial curve]"
CCOC(=O)Cc1nnc2c(Nc3ccc(Cl)cc3)nc3nonc3n12,AC50,[2],"3.16 µM [falling, full curve]"
same,AC50,[3],"7.94 µM [falling, full curve]"
O=C(NCCn1ccc2ccccc21)c1ccc(Cl)cc1,AC50,[1],"39.8 µM [falling, partial curve, poor fit]"
COc1ccccc1NC(=O)CSc1nc(-c2ccc(C(C)(C)C)cc2)c(C#N)c(=O)[nH]1,AC50,[1],"5.01 µM [falling, partial curve]"
Cc1cccc(N2CCN(CCNC(=O)Nc3ccc(Cl)cc3)CC2)c1C,AC50,[1],"15.8 µM [falling, partial curve]"
COc1ccc(NC(=O)CN(c2cc(C)cc(C)c2)S(=O)(=O)c2c(C)noc2C)cc1OC,AC50,[1],"12.6 µM [falling, partial curve]"
COc1ccc(OC)c(C2CC(=O)c3c([nH]c(C(=O)OC(C)C)c3C)C2)c1 (configuration not stated),AC50,[1],"5.01 µM [rising, partial curve] [measured here: IkB-luc green channel]"
C[C@@]12CCC(=O)C=C1CC[C@@H]1[C@@H]2[C@H](O)C[C@]2(C)[C@@H]1CC[C@]2(O)C(=O)CO,AC50,[1],"50.1 nM [rising, full curve] [measured here: IkB-luc green channel] and 15.8 nM [rising, full curve] [measured here: IkB-luc green channel]"
CCOC(=O)c1c(-c2cccs2)csc1NC(=O)CN1CC(C)OC(C)C1 (configuration not stated),AC50,[1],"39.8 µM [falling, single point]"
CC1CCN(C(=O)c2cc(-c3ccc(Br)cc3)on2)CC1,AC50,[1],"0.0631 µM [falling, full curve]"
COc1ccccc1-c1cc(C(=O)N2CCN(c3ccccc3OC)CC2)no1,AC50,[1],"0.501 µM [falling, full curve]"
CCOc1ccc(CNS(=O)(=O)c2ccc3c(c2)CCCN3C(C)=O)cc1OC,AC50,[1],"6.31 µM [rising, full curve]"
CCOC(=O)C1CCCN(C(=O)c2nn(-c3ccc(C)cc3)c(=O)n(C)c2=O)C1 (configuration not stated),AC50,[1],"1.58 µM [falling, full curve, poor fit]"
COc1ccc2c(c1)c(N1CCCC1=O)c(C(=O)Nc1ccccc1C(F)(F)F)n2C,AC50,[1],"25.1 µM [falling, single point]"
COc1ccc(-c2noc(N3CCC(C(=O)N4CCN(c5cccc(C)c5C)CC4)CC3)n2)cc1,AC50,[1],"39.8 µM [falling, single point]"
COc1cccc(CNC(=O)Cc2c(C(=O)O)c(C)cn2C)c1,AC50,[1],"1.58 µM [rising, full curve, poor fit]"
COc1ccc(CC(=O)NCC(c2cccs2)S(=O)(=O)c2ccc(C)cc2)cc1 (configuration not stated),AC50,[1],"2 µM [falling, partial curve]"
CC(=O)C1=C(O)C(=O)N(CCc2c[nH]c3ccccc23)C1c1ccco1 (configuration not stated),AC50,[1],"39.8 µM [rising, single point] [measured here: IkB-luc green channel]"
CCOC(=O)c1c(C)n(-c2ccccc2)c2ccc(OC(=O)c3cccc(OC)c3OC)cc12,AC50,[1],"0.316 µM [rising, full curve]"
CCN(CC)C(=O)c1ccc(Nc2nnc(-c3ccc(C)c(S(=O)(=O)NC)c3)c3ccccc23)cc1,AC50,[1],"15.8 µM [falling, single point]"
COc1ccc(CNC(=O)CCCN2C(=O)CSc3c2c(C)nn3-c2ccccc2)cc1,AC50,[1],"15.8 µM [falling, single point]"
Cc1cccn2c(=O)c(C(=O)NCc3ccc(F)cc3)c(O)nc12,AC50,[1],"25.1 µM [falling, single point]"
O=c1cc(-c2ccccc2)nc(SCc2nc(-c3ccccc3Cl)no2)[nH]1,AC50,[1],"25.1 µM [falling, partial curve]"
CCCOc1cccc(C(=O)Nc2cccc3cccnc23)c1,AC50,[1],"39.8 µM [falling, single point]"
COc1ccc(-c2nc3ccc(NS(=O)(=O)c4ccc(C)cc4)cc3o2)cc1,AC50,[1],"31.6 µM [falling, partial curve]"
CC(C)OCCCNC(=O)c1ccc(CSc2nc3cccnc3n2Cc2ccccc2)cc1,AC50,[1],"31.6 µM [falling, single point]"
O=C(OCc1cc(=O)n2nc(-c3cccs3)sc2n1)c1ccc(Cl)cc1,AC50,[1],"12.6 µM [falling, partial curve]"
CCC1=C(c2ccc(C)cc2)S(=O)(=O)N=C1N1CCC(C(=O)Nc2ccccc2F)CC1,AC50,[1],"25.1 µM [falling, single point]"
Cc1nc2sccn2c(=O)c1S(=O)(=O)Nc1ccc(N2CCOCC2)c(Cl)c1,AC50,[1],"1.26 µM [falling, partial curve]"
COC(=O)c1c(SCC(=O)Nc2cc(OC)cc(OC)c2)[nH]c2ccc(C)cc2c1=O,AC50,[1],"10 µM [falling, partial curve]"
CC1(C)CC(=O)C=C(NCCN2CCN(C(=O)Nc3ccc(Cl)c(Cl)c3)CC2)C1,AC50,[1],"20 µM [falling, partial curve]"
CCC1CCC(C(=O)NC(C(=O)Nc2cccc(OC)c2)C(C)C)CC1 (configuration not stated),AC50,[1],"0.398 µM [falling, partial curve]"
CCOC(=O)C1=C(c2ccccc2)NC(SC)=C(C#N)C1c1ccco1 (configuration not stated),AC50,[1],"15.8 µM [falling, partial curve]"
CCc1ccc(C(=O)c2cn(CC(=O)Nc3ccc4c(c3)OCO4)c3ccc(OC)cc3c2=O)cc1,AC50,[1],"25.1 µM [falling, single point]"
O=C(CSc1nnc(-c2ccccc2Br)o1)N1CCc2ccccc2C1,AC50,[1],"25.1 µM [falling, partial curve]"
CCC(NC(=O)c1ccccc1O)c1ccccc1 (configuration not stated),AC50,[1],"39.8 µM [falling, single point]"
OC(COc1ccc2cc(Br)ccc2c1)CN1CCN(c2ccccn2)CC1 (configuration not stated),AC50,[1],"2 µM [falling, full curve, poor fit]"
COc1ccc(Br)cc1CNC(=O)C1CCCN(S(C)(=O)=O)C1 (configuration not stated),AC50,[1],"0.002 µM [falling, full curve]"
CNc1ncnc2c1cnn2-c1ccc(C)c(C)c1,AC50,[1],"39.8 µM [falling, partial curve]"
COc1ccc(CCNc2nc(N3CCCCC3)nc(N3CCCCC3)n2)cc1OC,AC50,[1],"20 µM [falling, partial curve]"
COc1cc(NC(=O)c2cccc3c2C(=O)N(C2CCCCC2)C3)cc(OC)c1OC,AC50,[1],"12.6 µM [falling, partial curve]"
Oc1ccccc1-c1nc(/C=C/c2ccccc2Cl)nn1-c1ccccc1,AC50,[1],"5.01 µM [falling, partial curve]"
Cc1cc(O)c2c(c1)C(=O)c1cc(O)cc(O)c1C2=O,AC50,[2],"39.8 µM [falling, single point]"
same,AC50,[3],"10 µM [falling, partial curve]"
CCOC(=O)c1c(-c2ccccc2)oc2ccc(NS(=O)(=O)c3cc(C)c(C)cc3C)cc12,AC50,[1],"39.8 µM [falling, partial curve, poor fit]"
O=C(CN1N=C(c2ccc(Cl)cc2)CCC1=O)NCCc1ccc(Cl)cc1,AC50,[1],"39.8 µM [falling, partial curve]"
Cc1ccccc1NC(=O)c1ccc2c(c1)c(C)c(C)n2Cc1ccccc1,AC50,[1],"3.16 µM [rising, full curve]"
COc1ccc(OC)c(CNC(=O)c2ccc(Sc3ccc(C)cc3)c(N)c2)c1,AC50,[1],"31.6 µM [falling, single point]"
Cc1ccc(NC(=O)CN2C(=O)CCc3cc(S(=O)(=O)N4CCOCC4)ccc32)cc1F,AC50,[1],"10 µM [falling, partial curve]"
CCCc1nn2c(=O)cc(COC(=O)c3ccccc3NC(=O)COc3ccccc3F)nc2s1,AC50,[1],"15.8 µM [falling, partial curve]"
COc1ccc(NC(=O)c2oc3ccc(S(=O)(=O)N4CCCCC4)cc3c2C)cc1,AC50,[1],"3.16 µM [falling, partial curve]"
Cc1nc2c(C(=O)NCCCN(CC(C)C)CC(C)C)cnn2c(C)c1Cc1c(F)cccc1Cl,AC50,[1],"31.6 µM [falling, single point]"
CCCOC(=O)c1c(NC(=O)c2nc3ncccn3n2)sc(C(N)=O)c1C,AC50,[1],"3.16 µM [rising, partial curve]"
O=C1c2ccccc2NC(c2cnc3ccccc3n2)N1O (configuration not stated),AC50,[1],"0.794 µM [falling, partial curve]"
COc1ccc(NC(=O)CSc2nc(-c3ccco3)cc(C(F)(F)F)n2)cc1OC,AC50,[1],"3.98 µM [falling, full curve]"
CCOc1ccc(N(CC)S(=O)(=O)c2cc(Br)cc3c2N(C(C)=O)C(C)C3)cc1 (configuration not stated),AC50,[1],"7.94 µM [falling, full curve]"
COc1ccc(-c2cn(-c3ccc(C)cc3)c(S(=O)(=O)CC(=O)Nc3ccc(F)cc3)n2)cc1,AC50,[1],"5.01 µM [falling, partial curve]"
N#Cc1cc2ccccc2nc1SCc1ccccn1,AC50,[1],"0.0794 µM [falling, full curve, poor fit]"
O=C(Nc1ccc(Cl)c(Cl)c1)N1CCSC1c1ccco1 (configuration not stated),AC50,[1],"20 µM [falling, partial curve]"
CCOc1ccc(CCNC(=O)c2cc3c(=O)oc4ccc(C)cc4c3s2)cc1OCC,AC50,[1],"1.26 µM [rising, full curve, poor fit]"

# A portion taken from the entries so far, as a working copy:
smiles,measurement,setting,value
COc1ccc(-c2nc3ccc(NS(=O)(=O)c4ccc(C)cc4)cc3o2)cc1,AC50,[1],"31.6 µM [falling, partial curve]"
CC(C)OCCCNC(=O)c1ccc(CSc2nc3cccnc3n2Cc2ccccc2)cc1,AC50,[1],"31.6 µM [falling, single point]"
O=C(OCc1cc(=O)n2nc(-c3cccs3)sc2n1)c1ccc(Cl)cc1,AC50,[1],"12.6 µM [falling, partial curve]"
CCC1=C(c2ccc(C)cc2)S(=O)(=O)N=C1N1CCC(C(=O)Nc2ccccc2F)CC1,AC50,[1],"25.1 µM [falling, single point]"
Cc1nc2sccn2c(=O)c1S(=O)(=O)Nc1ccc(N2CCOCC2)c(Cl)c1,AC50,[1],"1.26 µM [falling, partial curve]"
COC(=O)c1c(SCC(=O)Nc2cc(OC)cc(OC)c2)[nH]c2ccc(C)cc2c1=O,AC50,[1],"10 µM [falling, partial curve]"
